Some of the results follow. These are further read-outs of the screen, such as a control signal, another cell line or another target. No call is given for them. The list favours compounds with an active or inconclusive main result. Words in brackets tell the shape of the fitted curve; partial curves, single points and poor fits give uncertain potencies.
Assay: qHTS Assay for Lipid Storage Modulators in Drosophila S3 Cells;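 on cell number change: cells counted by Cell Tracker Red CMTPX staining in the red channel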
Conditions: BODIPY lipid droplet fluorescence, 18-24 h; for cell number change: measured here: cell count max response, cells fed with added oleic acid
In short: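 Drosophila S3 cells loaded with oleic acid (400 uM, as added) and compounds at several concentrations; lipid droplets imaged by 488-nm laser-scanning cytometry, 500–530 nm intensity and object ratio to cell channel. Percent activity normalized to 20 uM Triacsin C.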

[1] = measured here: cell number channel AC50, cells fed with added oleic acid
[2] = measured here: lipid fluorescence (Fed channel) AC50, cells fed with added oleic acid

Row | Compound | cell number change [%] | AC50 [1] | AC50 [2]
1 | Cc1ccccc1NC(=O)CSCc1cc(=O)n2ccsc2n1 | 43.2 | 29.1 µM [rising, single point] | –
2 | COc1ccc(Nc2ncnc3sc(-c4ccccc4)cc23)cc1OC | 43.8 | 13 µM [rising, single point] | –
3 | O=C(O)C1CCN(Cc2cccnc2)CC1 | -11.9 | – | –
4 | S=C(NCc1cccs1)Nc1cc(Cl)cc(Cl)c1 | -61.2 | 16.4 µM [falling, single point] | 18.4 µM [falling, single point]
5 | O=C(Cc1ccc(S(=O)(=O)N2CCCC2)s1)NC1CCCCCC1 | 35.7 | 9.2 µM [rising, partial curve, poor fit] | –
6 | COc1ccc2[nH]cc(/C=C/c3cc[n+](C)cc3)c2c1 | -59.9 | 29.1 µM [falling, single point] | 16.4 µM [falling, partial curve]
7 | O=C(Nc1cc(Cl)ccc1-n1cncn1)c1cc(F)cc(F)c1 | – | 1.84 µM [rising, single point] | –
8 | COc1ccccc1-c1c(-c2ccc(OCC(=O)NN)cc2O)n[nH]c1C(F)(F)F | -52.8 | 20.6 µM [falling, partial curve, poor fit] | 0.13 µM [falling, full curve, poor fit]
9 | CC1CN(C(=O)c2ccccc2Sc2ccccc2C#N)CC(C)O1 (stereo unspecified) | 7.32 | – | 14.6 µM [rising, partial curve]
10 | N#Cc1ccc(CSc2nnc(-c3ccccc3)n2Cc2ccco2)cc1 | -31.4 | 1.3 µM [rising, partial curve] | –
11 | COC(=O)N1CCN(c2ccc(Cl)c(Cl)c2)CC1 | – | – | 20.6 µM [rising, partial curve]
12 | O=S(=O)(NC1=NCCC1)c1cccs1 | -26.9 | – | 0.0291 µM [falling, full curve]
13 | CCOc1ccc(N2CC(C(=O)Nc3cccc(S(=O)(=O)N4CCCC4)c3)CC2=O)cc1 (stereo unspecified) | – | 2.31 µM [rising, partial curve] | –
14 | COc1ccccc1CC(=O)N1CCN(c2cccc(C(F)(F)F)c2)CC1 | -17.1 | – | 16.4 µM [falling, single point]
15 | COc1cccc(C=Nc2ccc3c(c2)CCC3)c1O | -2.25 | – | 29.1 µM [falling, single point]
16 | Cc1oc2c(c(C)cc3oc(=O)c(CC(=O)NCCCN4CCCC4=O)c(C)c32)c1C | -30.2 | 0.206 µM [falling, full curve, poor fit] | 32.6 µM [falling, single point]
17 | O=C1N/C(=N/N=C/c2ccc(F)cc2)SC1c1ccccc1 (stereo unspecified) | 20.4 | – | –
18 | CCCCCN(C(=O)CCC(=O)OCC(=O)Nc1ccc(C)cc1F)c1c(N)n(CCCC)c(=O)[nH]c1=O | -44.5 | 16.4 µM [falling, single point] | 29.1 µM [falling, single point]
19 | CCCCN(C)CCNC(=O)c1nn(-c2ccc(OC)cc2)c(=O)c2c1c1ccccc1n2C | 11.3 | – | 7.31 µM [falling, single point]

Row | Compound | cell number change [%] | AC50 [1] | AC50 [2]
20 | CN(C)c1nc(NCc2ccccc2)nc(SCC(=O)Nc2ccccc2)n1 | 14.1 | – | 18.4 µM [rising, single point]
21 | CC(=O)n1cc([C@H]2C=C(C(=O)NCc3ccccc3)O[C@@H](OCc3ccc(CO)cc3)C2)c2ccccc21 | -14.5 | – | 32.6 µM [falling, single point]
22 | CCOc1cc(/C=N/NC(=O)c2ccc(NC(=O)C3CC3)cc2)ccc1O | -28.4 | – | –
23 | CCOc1ccc(-c2c(C(=O)N/N=C/c3c[nH]c4ccccc34)nnn2-c2nonc2N)cc1 | 6.11 | – | 0.731 µM [falling, full curve]
24 | Cc1cc([N+](=O)[O-])nn1CC(=O)N1N=C(C(F)F)CC1(O)C(F)F (stereo unspecified) | 4.36 | – | 13 µM [rising, partial curve, poor fit]
25 | Cc1ccccc1OC1=NS(=O)(=O)c2ccccc21 | -30.6 | 29.1 µM [falling, single point] | 32.6 µM [falling, single point]
26 | NC(N)=NCCCC(NC(=O)c1ccccc1)C(=O)Nc1ccc2ccccc2c1 (stereo unspecified) | -10.3 | – | 0.82 µM [rising, full curve, poor fit]
27 | COc1ccccc1-c1cc(C(=O)NCc2ccccc2)no1 | -0.153 | – | 0.00461 µM [falling, full curve, poor fit]
28 | N#CCCN(C(=O)COC(=O)Cc1ccc(Br)cc1)c1ccccc1 | – | 0.326 µM [rising, full curve] | 0.366 µM [rising, full curve]
29 | O=C(c1ccccc1F)N1CCN(Cc2nc3sc4c(c3c(=O)[nH]2)CCCC4)CC1 | 7.5 | – | 0.082 µM [rising, partial curve, poor fit]
30 | COc1ccc(F)cc1S(=O)(=O)N1CCC2(CC1)OCCN2S(=O)(=O)c1ccccc1 | – | – | 0.517 µM [rising, full curve, poor fit]
31 | CC(=O)N/N=C/c1ccccc1OCCOc1cccc(C)c1 | – | – | 0.651 µM [rising, partial curve, poor fit]
32 | O=C(O)Cc1sc(N/N=C\c2ccncc2)nc1-c1ccccc1 | -26.6 | – | 0.00517 µM [falling, full curve, poor fit]
33 | Cn1c(=O)c2c(nc(Sc3ncnn3CC(=O)N3CCOCC3)n2C)n(C)c1=O | – | 0.651 µM [falling, single point] | –
34 | O=C(CCO)c1ccc(O)cc1 | -17.7 | – | –
35 | CCNC(=O)NC(=O)CSc1nc2ccccc2n1CC(C)C | -14.4 | – | 0.58 µM [falling, full curve]
36 | CN(C(=O)COC(=O)c1c[nH]c(=O)[nH]c1=O)C1CCCCC1 | 7.81 | – | 0.0058 µM [falling, full curve, poor fit]
37 | CCOC(=O)Nc1ccc2c(CN3CCN(S(=O)(=O)c4ccccc4F)CC3)cc(=O)oc2c1 | – | 0.82 µM [rising, full curve, poor fit] | –
38 | CN(C(=O)c1cnc2n(c1=O)CCS2)C1CCCCC1 | 6.64 | – | 29.1 µM [rising, single point]

Three entries already listed, arranged by count of non-hydrogen atoms, low to high:
Row | Compound | cell number change [%] | AC50 [1] | AC50 [2]
2 | COc1ccc(Nc2ncnc3sc(-c4ccccc4)cc23)cc1OC | 43.8 | 13 µM [rising, single point] | –
19 | CCCCN(C)CCNC(=O)c1nn(-c2ccc(OC)cc2)c(=O)c2c1c1ccccc1n2C | 11.3 | – | 7.31 µM [falling, single point]
18 | CCCCCN(C(=O)CCC(=O)OCC(=O)Nc1ccc(C)cc1F)c1c(N)n(CCCC)c(=O)[nH]c1=O | -44.5 | 16.4 µM [falling, single point] | 29.1 µM [falling, single point]

Source: PubChem BioAssay AID2685 (National Center for Advancing Translational Sciences (NCATS), 2010)
